Experiment [1] concerns the target T1, microrchidia family CW-type zinc finger protein 2 (MORC2), full length, Flag- or HA-tagged (human) (UniProt Q9Y6X9).
T1 sequence: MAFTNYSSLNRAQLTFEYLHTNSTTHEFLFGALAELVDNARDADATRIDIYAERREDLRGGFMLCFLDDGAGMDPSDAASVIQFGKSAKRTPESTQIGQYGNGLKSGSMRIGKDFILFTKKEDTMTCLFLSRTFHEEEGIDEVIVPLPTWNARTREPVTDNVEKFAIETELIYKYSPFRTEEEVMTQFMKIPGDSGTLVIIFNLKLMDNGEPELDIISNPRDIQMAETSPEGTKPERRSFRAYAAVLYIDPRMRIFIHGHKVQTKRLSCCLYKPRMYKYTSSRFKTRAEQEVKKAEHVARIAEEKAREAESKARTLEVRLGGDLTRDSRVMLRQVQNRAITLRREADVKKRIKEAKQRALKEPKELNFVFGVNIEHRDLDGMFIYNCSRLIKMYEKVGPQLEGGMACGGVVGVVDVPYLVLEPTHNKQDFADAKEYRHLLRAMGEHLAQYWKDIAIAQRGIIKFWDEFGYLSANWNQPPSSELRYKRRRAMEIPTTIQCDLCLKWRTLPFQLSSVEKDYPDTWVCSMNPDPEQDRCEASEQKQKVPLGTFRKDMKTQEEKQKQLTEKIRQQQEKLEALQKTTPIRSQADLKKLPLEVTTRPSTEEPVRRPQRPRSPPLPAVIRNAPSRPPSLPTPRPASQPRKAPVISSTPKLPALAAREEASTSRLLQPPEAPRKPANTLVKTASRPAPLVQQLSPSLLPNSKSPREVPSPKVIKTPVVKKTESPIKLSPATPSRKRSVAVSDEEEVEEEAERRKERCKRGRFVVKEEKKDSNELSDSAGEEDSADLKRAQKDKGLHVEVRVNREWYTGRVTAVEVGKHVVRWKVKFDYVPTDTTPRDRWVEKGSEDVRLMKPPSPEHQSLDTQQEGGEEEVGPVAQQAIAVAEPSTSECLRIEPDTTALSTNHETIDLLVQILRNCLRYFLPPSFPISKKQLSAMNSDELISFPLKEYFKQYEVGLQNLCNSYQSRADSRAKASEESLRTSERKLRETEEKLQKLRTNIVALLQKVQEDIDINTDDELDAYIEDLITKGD
The experiment can be described thus: co-IP; HEK293T co-transfected for 48 h; NP-40 lysis buffer (50 mM Tris-HCl pH 8, 150 mM NaCl, 0.5% NP-40, 10% glycerol, 2 mM MgCl2, 1 mM EDTA); anti-Flag or anti-HA magnetic beads overnight at 4 °C; immunoblotting.

For experiment [2], the target named is HA-MORC2 ∆C82 (deletion of C-terminal 82 amino acid) (human) (UniProt Q9Y6X9). Described as above.

No constants are given. Whether binding was seen depends on the method and setting. In cells and extracts the contact can be indirect. Sequences can lack the tags named with a protein.

On to “HA-MORC2 ∆C82 (deletion of C-terminal 82 amino acid) (from UniProt Q9Y6X9) (domain or fragment)”, for which the binding entry in experiment [1] is given as “no binding”.

B1: microrchidia family CW-type zinc finger protein 2 (MORC2), full length, Flag- or HA-tagged (natural protein, human, UniProt Q9Y6X9 1-1032, looked up)
chain: MAFTNYSSLNRAQLTFEYLHTNSTTHEFLFGALAELVDNARDADATRIDIYAERREDLRGGFMLCFLDDGAGMDPSDAASVIQFGKSAKRTPESTQIGQYGNGLKSGSMRIGKDFILFTKKEDTMTCLFLSRTFHEEEGIDEVIVPLPTWNARTREPVTDNVEKFAIETELIYKYSPFRTEEEVMTQFMKIPGDSGTLVIIFNLKLMDNGEPELDIISNPRDIQMAETSPEGTKPERRSFRAYAAVLYIDPRMRIFIHGHKVQTKRLSCCLYKPRMYKYTSSRFKTRAEQEVKKAEHVARIAEEKAREAESKARTLEVRLGGDLTRDSRVMLRQVQNRAITLRREADVKKRIKEAKQRALKEPKELNFVFGVNIEHRDLDGMFIYNCSRLIKMYEKVGPQLEGGMACGGVVGVVDVPYLVLEPTHNKQDFADAKEYRHLLRAMGEHLAQYWKDIAIAQRGIIKFWDEFGYLSANWNQPPSSELRYKRRRAMEIPTTIQCDLCLKWRTLPFQLSSVEKDYPDTWVCSMNPDPEQDRCEASEQKQKVPLGTFRKDMKTQEEKQKQLTEKIRQQQEKLEALQKTTPIRSQADLKKLPLEVTTRPSTEEPVRRPQRPRSPPLPAVIRNAPSRPPSLPTPRPASQPRKAPVISSTPKLPALAAREEASTSRLLQPPEAPRKPANTLVKTASRPAPLVQQLSPSLLPNSKSPREVPSPKVIKTPVVKKTESPIKLSPATPSRKRSVAVSDEEEVEEEAERRKERCKRGRFVVKEEKKDSNELSDSAGEEDSADLKRAQKDKGLHVEVRVNREWYTGRVTAVEVGKHVVRWKVKFDYVPTDTTPRDRWVEKGSEDVRLMKPPSPEHQSLDTQQEGGEEEVGPVAQQAIAVAEPSTSECLRIEPDTTALSTNHETIDLLVQILRNCLRYFLPPSFPISKKQLSAMNSDELISFPLKEYFKQYEVGLQNLCNSYQSRADSRAKASEESLRTSERKLRETEEKLQKLRTNIVALLQKVQEDIDINTDDELDAYIEDLITKGD
notes: MORC2, human, full length (1032 residues by the printed numbering 950-1032 for the C-terminus); Flag-MORC2 and HA-MORC2 are two differently tagged copies of the same full-length protein; each chain carries one tag only; Written as one molecule because they are co-precipitated with each other to show self-association; Flag-MORC2 was the copy purified for cross-linking; HA-MORC2 was the copy …
As to B1, the binding entry in experiment [2] is “no binding”.
